Patent US5880258A (dated 1999)
Some peptides are written in HELM: one residue between dots, names in brackets for other building blocks, links after the first $.

Experiment: general procedure: Boc solid-phase peptide synthesis; Boc-Gln-OCH2-PAM resin; symmetrical anhydride method
Settings: whole synthesis, HPLC (Waters u-Bondapak C18, 3.9x150 mm)

Substance	final HPLC purity
PEPTIDE1{G.D.F.E.E.I.P.E.Y.Y.L.Q}$$$$V2.0	over 99%
PEPTIDE1{G.D.F.E.E.I.P.Y.Y.Y.L.Q}$$$$V2.0	over 99%
